Measurements published in patent US6387681.
For at least one entry, the source does not settle the construct or the ends of the probe.

System: NheI methylase (M.NheI) (Neisseria mucosa heidelbergensis)
Experiment: activity in cells
Details: plasmids carrying nheIM resistant to NheI digestion; 11 of 18 pACYC clones resistant; protein in cells; only the site is given

Sequence: GCTAGC (double strand) [NheI site in M.NheI-expressing plasmid DNA]
- activity on this sequence: active
